The list shows a part of the results. Further columns of the screen follow, without active or inactive calls. Compounds called inactive in the main read-out are mostly missing here. The note in brackets gives the kind of curve behind each potency; many fits are weak.

The assay can be described thus: qHTS Assay to Find Inhibitors of Chronic Active B-Cell Receptor Signaling. Particulars: ABC-DLBCL IkBa-CBG/CBR reporter, luminescence ratio (green luciferase fused to IkBa over red control in TMD8 lymphoma cells), 4 h. The gist of the method: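 Doxycycline induced both beetle luciferases in TMD8 lymphoma cells; IKK-driven degradation limits the IkappaBalpha-fused green signal, while red luminescence normalises for cell number and nonspecific effects. Compounds tested up to 46 uM, 4 hrs.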

[1] abbreviates: measured here: CBR red luminescence, cell number.
The mark [2] stands for this setting: measured here: IkBa-CBG green luminescence.

Take `CC(=O)c1ccc(NC(=O)c2ccc([N+](=O)[O-])o2)cc1`: under setting [1], the AC50 is 35.5 µM [falling, single point]. Still for that read-out and setting: the value for `Cc1cccc(NC(=O)C(=O)C2C(=O)Nc3ccccc32)c1` (stereo unspecified) was 8.91 µM [falling, partial curve, poor fit]; that for `CCSC1=N/C(=C\C=C2/Oc3ccccc3N2CC)C(=O)S1` was 3.55 µM [rising, partial curve, poor fit]; that for `Cc1cc(C)c2c(=O)[nH]c(SCC(=O)N(C)C)nc2n1` was 8.91 µM [falling, partial curve, poor fit]. As to `Cc1ccc(NC(=O)CCc2nnc3ccc(N4CCC(C)CC4)nn23)nc1`, under setting [1], the AC50 is 3.98 µM [rising, partial curve, poor fit]. For the molecule `O=C(CSc1nnc(CNC(=O)c2cccs2)o1)Nc1ccccc1`, the AC50 is, setting by setting: under setting [1], 35.5 µM [falling, single point]; under setting [2], 35.5 µM [rising, partial curve, poor fit]. With `COC(=O)Cc1csc(/N=C/c2c(O)n(-c3cccc(C(F)(F)F)c3)c(=O)c3ccccc23)n1`, under setting [1], the AC50 was 29.1 µM [rising, single point]. Take `CCCSc1nc2c(c(=O)n1CC)SC(C)C2` (stereo unspecified): the AC50 under setting [1] was 6.51 µM [rising, single point]. In the case of `Cc1[nH]c2ccc(OC(=O)N3CCOCC3)cc2c1C(=O)OC(C)C`, the AC50 under setting [2] is 3.66 µM [falling, single point]. Regarding `COc1ccc(CNc2nc3ccccc3n2C)c(O)c1`, the AC50 under setting [1] was 6.31 µM [rising, full curve].

Take `COc1cc(S(=O)(=O)NCCc2c(C)[nH]c3ccc(C)cc23)ccc1Br`: the AC50 reads like this: under setting [1], 14.1 µM [falling, single point]; under setting [2], 35.5 µM [rising, partial curve, poor fit]. As to `CS(=O)(=O)c1ccc2c(c1)sc1nc(=O)c(/C=C3/C=CC(=O)C(O)=C3)c(N)n12`, the AC50 under setting [1] is 11.2 µM [falling, partial curve].

For the molecule `COc1ccc(-c2nn(-c3ccccc3)cc2/C=N/n2cnnc2)cc1OC`, under setting [1], the AC50 is 10.3 µM [rising, partial curve, poor fit].

As to `C/C(=N\Nc1ccc([N+](=O)[O-])cc1)c1ccc(-n2nncc2C)cc1`, the AC50 under setting [1] was 4.61 µM [rising, full curve, poor fit]. Consider `COc1ccc(Nc2nc(-c3ccccc3)nc3ccccc23)cc1S(=O)(=O)N1CCOCC1`, for which, under setting [1], the AC50 is 15.8 µM [falling, single point].

For `c1ccc(-c2noc(-c3cccc4ccccc34)n2)nc1`, the AC50 under setting [1] is 25.9 µM [falling, single point]. For the molecule `Fc1cccc(Nc2nc(N3CCOCC3)nc(N3CCOCC3)n2)c1`, the AC50 under setting [1] was 11.2 µM [falling, single point]. Same read-out and setting: then `COc1cc(N/N=C(\C)c2ccc(N)cc2)nc(-c2ccccc2)n1`, with 12.6 µM [falling, partial curve, poor fit]. On the same count and under the same terms, the value for `O=C(O)c1cccc(S(=O)(=O)Nc2cccc(S(=O)(=O)N3CCCC3)c2)c1` was 0.00461 µM [falling, full curve, poor fit]. On the same count and under the same terms, then `C=CCc1c(C)[nH]c2ccc(C)cc2c1=O`, with 3.26 µM [rising, single point]. Turning to `CCCn1nc(NC(=O)C2CCCO2)c2cc3cc(C)ccc3nc21` (stereo unspecified), the AC50 under setting [1] was 0.82 µM [falling, full curve, poor fit]. Same read-out and setting: the value for `O=C(N/N=C/c1ccc(N2CCOCC2)o1)c1ccccc1[N+](=O)[O-]` was 25.9 µM [falling, single point].

As to `Cc1ccc2[nH]c(=O)c(CN(Cc3cccnc3)Cc3nnnn3CCN3CCOCC3)cc2c1`, under setting [2], the AC50 is 4.11 µM [rising, partial curve, poor fit].

`COc1ccc(C2=CC(c3cccc(OC)c3)n3nnnc3N2)cc1` (stereo unspecified): the AC50 under setting [1] is 23.1 µM [falling, single point]. On the same count and under the same terms, then `COc1ccc(NC(=O)CN(C)C(=O)c2ccc3[nH]c4c(c3c2)CC(C)CC4)cc1` (stereo unspecified), with 16.4 µM [falling, single point]; and `CCC1Oc2ccc(C)cc2N(CC(=O)N(Cc2ccc(C)o2)C2CC(C)(C)NC(C)(C)C2)C1=O` (stereo unspecified), with 10.3 µM [falling, partial curve]. `CC1CC(C)CN(C(=S)NC2CCCCC2)C1` (stereo unspecified): under setting [1], the AC50 was 0.651 µM [rising, full curve, poor fit].

As for `CCOC(=O)/C=c1\s/c(=C(\C#N)C(N)=O)n(-c2ccccc2)c1=O`, under setting [1], the AC50 is 15.8 µM [falling, single point].

Consider `Cc1cc(C)c(CSc2ncc(-c3ccc([N+](=O)[O-])cc3)[nH]2)c(C)c1`, for which the AC50 under setting [1] was 35.5 µM [falling, single point]. Same read-out and setting: the value for `O=C(Nc1nnc(-c2ccccn2)o1)c1cccc(Cl)c1` was 7.94 µM [falling, partial curve]; that for `CN(C)c1ccc(C(=S)Nc2ccccc2)cc1` was 14.6 µM [falling, single point]. The same measure, in the same setting: then `CCCC(=O)Nc1ccc(NC(=O)c2ccccc2Cl)nc1`, with 20.6 µM [falling, partial curve, poor fit]; and `CCOC(=O)c1snc(C(=O)NC2CCCCC2)c1N`, with 13 µM [falling, partial curve]; and `CC(C)c1ccc(NC(=O)C2CCCN(S(=O)(=O)c3cnc[nH]3)C2)cc1` (stereo unspecified), with 20.6 µM [falling, partial curve, poor fit]. Same read-out and setting: then `CCOC(=O)Nc1cccc2ccccc12`, with 12.6 µM [falling, partial curve, poor fit]; and `C=CCn1cc(C(=O)OC)c(=O)c2cc(S(=O)(=O)N(CC)CC)ccc21`, with 16.4 µM [falling, partial curve, poor fit]. Consider `Cc1nc(-c2ccccc2)sc1C(=O)/C=C/c1ccc(Cl)cc1`, for which the AC50 under setting [1] is 12.6 µM [rising, single point]. On the same count and under the same terms, the value for `COc1ccccc1NC(=O)COC(=O)c1ccccn1` was 11.2 µM [falling, single point]; that for `COc1ccc(C(=O)Cn2cnc3ccc(Cl)cc3c2=O)cc1F` was 3.98 µM [rising, single point].

For `Cc1ccc(OCC(=O)NNC(=S)NC(=O)C2CC2)c(C)c1`, the AC50 is 31.6 µM [falling, single point] under setting [1] and 35.5 µM [rising, partial curve, poor fit] under setting [2]. For `O/C(=C\Sc1nnc(Cc2ccccc2)o1)c1ccc(F)cc1`, under setting [1], the concentration at half-maximal activity (AC50) is 0.58 µM [falling, full curve, poor fit]. Consider `CCOC(=O)C1CCCN(C(=O)c2ccc3c(c2)N(C)C(=O)/C(=C/c2ccccc2Cl)S3)C1` (stereo unspecified), for which the AC50 under setting [1] is 10 µM [falling, partial curve]. The same measure, in the same setting: the value for `COc1ccc(OC)c(-n2cnc3cc(C(=O)NCCCN4CCOCC4)ccc32)c1` was 10 µM [rising, partial curve]. On the same count and under the same terms, then `COc1cc(C(=O)OCC(=O)NC(=O)c2cccn2C)ccc1OC(F)F`, with 35.5 µM [rising, single point]; and `CCOC(=O)N1CCC(N2Cc3cccc(C(=O)Nc4ccccc4OC)c3C2=O)CC1`, with 12.6 µM [falling, partial curve, poor fit]. In the case of `Cc1cc(N2C3CCC2CC(O)(c2ccc(F)cc2)C3)nc(-c2ccccc2)n1` (stereo unspecified), the AC50 under setting [1] was 18.4 µM [falling, single point]. The same measure, in the same setting: the value for `CC1CC(NC(=O)/C=C/C(=O)O)CC(C)(C)C1` (stereo unspecified) was 3.55 µM [rising, partial curve]. Same read-out and setting: the value for `COc1ccccc1NC(=O)COc1ccccc1C(=O)Nc1ccccc1` was 20 µM [falling, single point]. On the same count and under the same terms, then `Cc1c(C(=O)N2CCOCC2)c(S(=O)(=O)Nc2ccc(F)cc2)c(C)n1C`, with 35.5 µM [falling, single point]; and `C/C(=N/NC(=O)CNS(=O)(=O)c1ccc(C)cc1)c1cccc([N+](=O)[O-])c1`, with 35.5 µM [rising, single point].

For the molecule `COc1ccc(NC(=O)c2ccccc2F)cc1Cl`, the AC50 under setting [1] was 18.4 µM [falling, single point]. In the case of `O=C(CCCN1C(=O)/C(=C\c2ccco2)SC1=S)Nc1cccc2ccccc12`, the AC50 under setting [1] was 29.1 µM [falling, single point].

Regarding `COc1ccccc1CCn1cc(C#N)c(=O)[nH]c1=O`, the AC50 under setting [1] was 11.2 µM [rising, partial curve, poor fit]. Take `FC(F)(F)Oc1ccc(Nc2nc3ccccc3o2)cc1`: under setting [1], the AC50 was 2.24 µM [rising, full curve].

For `CCCCCCc1cc2cc(C(=O)Nc3cccc(OC)c3)c(=O)oc2cc1O`, under setting [1], the AC50 was 6.51 µM [falling, partial curve]. For the molecule `O=C(COc1ccccc1Cl)NC(=S)N1CCc2ccccc21`, under setting [1], the AC50 is 14.1 µM [rising, partial curve, poor fit]. Consider `CCCCNc1c(-c2cccc(-c3ccc(OC)cc3)c2)nc2ccc(C)cn12`, for which the AC50 under setting [1] is 7.31 µM [falling, partial curve].

Regarding `O=C(NC(=S)NNC(=O)c1ccc(Cl)cc1Cl)c1cccnc1`, the AC50 under setting [1] was 29.1 µM [falling, single point]. For `CN1C(=O)c2cccc(NCCCCCCN3C(=O)c4ccccc4C3=O)c2C1=O`, under setting [1], the AC50 is 3.66 µM [rising, single point]. Still for that read-out and setting: then `O=C(Cn1c(=O)n(Cc2ccccc2)c(=O)c2ccccc21)NCc1ccco1`, with 6.51 µM [rising, single point]. Consider `FC(F)(F)c1cccc(Sc2cc(C(F)(F)F)nc(-c3ccccn3)n2)c1`, for which the concentration at half-maximal activity (AC50) under setting [1] is 0.112 µM [falling, full curve, poor fit]. Still for that read-out and setting: the value for `COc1ccc(Cc2noc(CN3CCN(Cc4cccc(Cl)c4)CC3)n2)cc1OC` was 2.51 µM [rising, partial curve, poor fit]; that for `CCc1cc2c(SCC(=O)N3CC(=O)Nc4ccccc43)ncnc2s1` was 3.66 µM [rising, full curve].
